The supplement of paper PMC8728848
The other results are listed elsewhere or left out.

Legend:
Experiment in all cases: glycan array binding signal (z-score within array); higher = stronger binding
Conditions in all cases: glycan notation: IUPAC condensed, linker removed
[1] = molecular target: Fuc(a1-3)[Gal(b1-4)]GlcNAc(b1-4)Gal(b1-4)[Fuc(a1-3)]GlcNAc
Method in brief: (§1)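 The binding signal is a Z-score computed within each array. Data were drawn from 3228 arrays in the Consortium for Functional Glycomics database, restricted to those with a known protein sequence. Scores were averaged over arrays of the same protein sequence at different concentrations or buffers, and over linkers, and negative values can be taken as non-binding.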

[2] = molecular target: Fuc(a1-3)[Gal(b1-4)]GlcNAc(b1-4)Gal(b1-4)[Fuc(a1-3)]GlcNAc(b1-4)Gal(b1-4)[Fuc(a1-3)]GlcNAc
Method in brief: as §1

[3] = molecular target: Fuc(a1-3)[Gal(b1-4)]GlcNAc(b1-6)GalNAc
Method in brief: as §1

[4] = molecular target: Fuc(a1-3)[Gal(b1-4)]GlcNAc(b1-6)[Gal(b1-3)GlcNAc(b1-3)]Gal(b1-4)Glc
Method in brief: as §1

[5] = molecular target: Fuc(a1-3)[Gal(b1-4)]GlcNAc(b1-6)[Neu5Ac(a2-3)Gal(b1-3)]GalNAc
Method in brief: as §1

[6] = molecular target: Fuc(a1-3)[Gal(b1-4)]GlcNAc6S
Method in brief: as §1

[7] = molecular target: Fuc(a1-3)[Gal3S(b1-4)]GlcNAc
Method in brief: as §1

[8] = molecular target: Fuc(a1-3)[Gal3S(b1-4)]GlcNAc6S
Method in brief: as §1

[9] = molecular target: Fuc(a1-3)[GalNAc(b1-4)]GlcNAc
Method in brief: as §1

[10] = molecular target: Fuc(a1-3)[GalNAc(b1-4)]GlcNAc6S
Method in brief: as §1

[11] = molecular target: Fuc(a1-3)[GalNAc3S(b1-4)]GlcNAc
Method in brief: as §1

Fuc(a1-4)GlcNAc = molecular target: Fuc(a1-4)GlcNAc
Method in brief: as §1

Fuc(b1-3)GlcNAc = molecular target: Fuc(b1-3)GlcNAc
Method in brief: as §1

Gal(a1-2)Gal = molecular target: Gal(a1-2)Gal
Method in brief: as §1

Gal(a1-3)Gal = molecular target: Gal(a1-3)Gal
Method in brief: as §1

Gal(a1-3)Gal(b1-3)GlcNAc = molecular target: Gal(a1-3)Gal(b1-3)GlcNAc
Method in brief: as §1

[12] = molecular target: Gal(a1-3)Gal(b1-3)GlcNAc(b1-2)Man(a1-3)[Gal(a1-3)Gal(b1-3)GlcNAc(b1-2)Man(a1-6)]Man(b1-4)GlcNAc(b1-4)GlcNAc
Method in brief: as §1

[13] = molecular target: Gal(a1-3)Gal(b1-3)GlcNAc(b1-3)GalNAc
Method in brief: as §1

[14] = molecular target: Gal(a1-3)Gal(b1-3)GlcNAc(b1-6)GalNAc
Method in brief: as §1

[15] = molecular target: Gal(a1-3)Gal(b1-3)[Fuc(a1-4)]GlcNAc(b1-2)Man(a1-3)[Gal(a1-3)Gal(b1-3)[Fuc(a1-4)]GlcNAc(b1-2)Man(a1-6)]Man(b1-4)GlcNAc(b1-4)GlcNAc
Method in brief: as §1

Gal(a1-3)Gal(b1-4)Glc = molecular target: Gal(a1-3)Gal(b1-4)Glc
Method in brief: as §1

Gal(a1-3)Gal(b1-4)GlcNAc = molecular target: Gal(a1-3)Gal(b1-4)GlcNAc
Method in brief: as §1

[16] = molecular target: Gal(a1-3)Gal(b1-4)GlcNAc(b1-3)GalNAc
Method in brief: as §1

[17] = molecular target: Gal(a1-3)Gal(b1-4)GlcNAc(b1-6)GalNAc
Method in brief: as §1

[18] = molecular target: Gal(a1-3)Gal(b1-4)[Fuc(a1-3)]GlcNAc
Method in brief: as §1

[19] = molecular target: Gal(a1-3)Gal(b1-4)[Fuc(a1-3)]GlcNAc(b1-2)Man(a1-3)[Gal(a1-3)Gal(b1-4)[Fuc(a1-3)]GlcNAc(b1-2)Man(a1-6)]Man(b1-4)GlcNAc(b1-4)GlcNAc
Method in brief: as §1

Gal(a1-3)GalNAc = molecular target: Gal(a1-3)GalNAc
Method in brief: as §1

[20] = molecular target: Gal(a1-3)[Gal(a1-4)]Gal(b1-4)GlcNAc
Method in brief: as §1

[21] = molecular target: Gal(a1-4)Gal(b1-3)GlcNAc(b1-2)Man(a1-3)[Gal(a1-4)Gal(b1-3)GlcNAc(b1-2)Man(a1-6)]Man(b1-4)GlcNAc(b1-4)GlcNAc
Method in brief: as §1

Gal(a1-4)Gal(b1-4)Glc = molecular target: Gal(a1-4)Gal(b1-4)Glc
Method in brief: as §1

Gal(a1-4)Gal(b1-4)GlcNAc = molecular target: Gal(a1-4)Gal(b1-4)GlcNAc
Method in brief: as §1

[22] = molecular target: Gal(a1-4)Gal(b1-4)GlcNAc(b1-2)Man(a1-3)[Gal(a1-4)Gal(b1-4)GlcNAc(b1-2)Man(a1-6)]Man(b1-4)GlcNAc(b1-4)GlcNAc
Method in brief: as §1

[23] = molecular target: Gal(a1-4)Gal(b1-4)GlcNAc(b1-3)Gal(b1-4)Glc
Method in brief: as §1

Gal(a1-4)GlcNAc = molecular target: Gal(a1-4)GlcNAc
Method in brief: as §1

Gal(a1-6)Glc = molecular target: Gal(a1-6)Glc
Method in brief: as §1

Gal(b1-2)Gal = molecular target: Gal(b1-2)Gal
Method in brief: as §1

Gal(b1-3)Gal = molecular target: Gal(b1-3)Gal
Method in brief: as §1

Gal(b1-3)Gal(b1-4)GlcNAc = molecular target: Gal(b1-3)Gal(b1-4)GlcNAc
Method in brief: as §1

[24] = molecular target: Gal(b1-3)Gal(b1-4)GlcNAc(b1-2)Man(a1-3)[Gal(b1-3)Gal(b1-4)GlcNAc(b1-2)Man(a1-6)]Man(b1-4)GlcNAc(b1-4)GlcNAc
Method in brief: as §1

Gal(b1-3)GalNAc = molecular target: Gal(b1-3)GalNAc
Method in brief: as §1

[25] = molecular target: Gal(b1-3)GalNAc(a1-3)[Fuc(a1-2)]Gal(b1-4)Glc
Method in brief: as §1

[26] = molecular target: Gal(b1-3)GalNAc(a1-3)[Fuc(a1-2)]Gal(b1-4)GlcNAc
Method in brief: as §1

[27] = molecular target: Gal(b1-3)GalNAc(b1-3)Gal(a1-4)Gal(b1-4)Glc
Method in brief: as §1

[28] = molecular target: Gal(b1-3)GalNAc(b1-4)Gal(b1-4)Glc
Method in brief: as §1

[29] = molecular target: Gal(b1-3)GalNAc(b1-4)[Neu5Ac(a2-3)]Gal(b1-4)Glc
Method in brief: as §1

B1: Latrophilin-3 (Homo sapiens), Q9HAR2 (protein)
chain: MWPSQLLIFMMLLAPIIHAFSRAPIPMAVVRRELSCESYPIELRCPGTDVIMIESANYGRTDDKICDSDPAQMENIRCYLPDAYKIMSQRCNNRTQCAVVAGPDVFPDPCPGTYKYLEVQYECVPYKVEQKVFLCPGLLKGVYQSEHLFESDHQSGAWCKDPLQASDKIYYMPWTPYRTDTLTEYSSKDDFIAGRPTTTYKLPHRVDGTGFVVYDGALFFNKERTRNIVKFDLRTRIKSGEAIIANANYHDTSPYRWGGKSDIDLAVDENGLWVIYATEQNNGKIVISQLNPYTLRIEGTWDTAYDKRSASNAFMICGILYVVKSVYEDDDNEATGNKIDYIYNTDQSKDSLVDVPFPNSYQYIAAVDYNPRDNLLYVWNNYHVVKYSLDFGPLDSRSGQAHHGQVSYISPPIHLDSELERPSVKDISTTGPLGMGSTTTSTTLRTTTLSPGRSTTPSVSGRRNRSTSTPSPAVEVLDDMTTHLPSASSQIPALEESCEAVEAREIMWFKTRQGQIAKQPCPAGTIGVSTYLCLAPDGIWDPQGPDLSNCSSPWVNHITQKLKSGETAANIARELAEQTRNHLNAGDITYSVRAMDQLVGLLDVQLRNLTPGGKDSAARSLNKAMVETVNNLLQPQALNAWRDLTTSDQLRAATMLLHTVEESAFVLADNLLKTDIVRENTDNIKLEVARLSTEGNLEDLKFPENMGHGSTIQLSANTLKQNGRNGEIRVAFVLYNNLGPYLSTENASMKLGTEALSTNHSVIVNSPVITAAINKEFSNKVYLADPVVFTVKHIKQSEENFNPNCSFWSYSKRTMTGYWSTQGCRLLTTNKTHTTCSCNHLTNFAVLMAHVEVKHSDAVHDLLLDVITWVGILLSLVCLLICIFTFCFFRGLQSDRNTIHKNLCISLFVAELLFLIGINRTDQPIACAVFAALLHFFFLAAFTWMFLEGVQLYIMLVEVFESEHSRRKYFYLVGYGMPALIVAVSAAVDYRSYGTDKVCWLRLDTYFIWSFIGPATLIIMLNVIFLGIALYKMFHHTAILKPESGCLDNIKSWVIGAIALLCLLGLTWAFGLMYINESTVIMAYLFTIFNSLQGMFIFIFHCVLQKKVRKEYGKCLRTHCCSGKSTESSIGSGKTSGSRTPGRYSTGSQSRIRRMWNDTVRKQSESSFITGDINSSASLNREGLLNNARDTSVMDTLPLNGNHGNSYSIASGEYLSNCVQIIDRGYNHNETALEKKILKELTSNYIPSYLNNHERSSEQNRNLMNKLVNNLGSGREDDAIVLDDATSFNHEESLGLELIHEESDAPLLPPRVYSTENHQPHHYTRRRIPQDHSESFFPLLTNEHTEDLQSPHRDSLYTSMPTLAGVAATESVTTSTQTEPPPAKCGDAEDVYYKSMPNLGSRNHVHQLHTYYQLGRGSSDGFIVPPNKDGTPPEGSSKGPAHLVTSL
Question: B1 was tested. Which “glycan array binding signal (z-score)” value [1] did it give?
Answer: 0.632

Question: And the “glycan array binding signal (z-score)” value [2]?
Answer: 1.42

Question: What about the “glycan array binding signal (z-score)” value [3] of the same binder?
Answer: -0.197

Question: And the “glycan array binding signal (z-score)” value [4]?
Answer: 0.641

Question: And the “glycan array binding signal (z-score)” value [5]?
Answer: -0.297

Question: What about the “glycan array binding signal (z-score)” value [6] of the same binder?
Answer: -0.64

Question: And the “glycan array binding signal (z-score)” value [7]?
Answer: 0.232

Question: And the “glycan array binding signal (z-score)” value [8]?
Answer: -0.597

Question: What about the “glycan array binding signal (z-score)” value [9] of the same binder?
Answer: -0.011

Question: And the “glycan array binding signal (z-score)” value [10]?
Answer: 0.053

Question: What about the “glycan array binding signal (z-score)” value [11] of the same binder?
Answer: 1.2

Question: What about the “glycan array binding signal (z-score)” value (Fuc(a1-4)GlcNAc) of the same binder?
Answer: -0.164

Question: What about the “glycan array binding signal (z-score)” value (Fuc(b1-3)GlcNAc) of the same binder?
Answer: 0.042

Question: And the “glycan array binding signal (z-score)” value (Gal(a1-2)Gal)?
Answer: 2.83

Question: What about the “glycan array binding signal (z-score)” value (Gal(a1-3)Gal) of the same binder?
Answer: -0.586

Question: And the “glycan array binding signal (z-score)” value (Gal(a1-3)Gal(b1-3)GlcNAc)?
Answer: 0.121

Question: What about the “glycan array binding signal (z-score)” value [12] of the same binder?
Answer: 1.53

Question: What about the “glycan array binding signal (z-score)” value [13] of the same binder?
Answer: -1.02

Question: What about the “glycan array binding signal (z-score)” value [14] of the same binder?
Answer: -0.37

Question: What about the “glycan array binding signal (z-score)” value [15] of the same binder?
Answer: -1.37

Question: And the “glycan array binding signal (z-score)” value (Gal(a1-3)Gal(b1-4)Glc)?
Answer: -0.797

Question: And the “glycan array binding signal (z-score)” value (Gal(a1-3)Gal(b1-4)GlcNAc)?
Answer: -0.823

Question: What about the “glycan array binding signal (z-score)” value [16] of the same binder?
Answer: -1.06

Question: And the “glycan array binding signal (z-score)” value [17]?
Answer: 1.24

Question: And the “glycan array binding signal (z-score)” value [18]?
Answer: -0.174

Question: And the “glycan array binding signal (z-score)” value [19]?
Answer: 1.87

Question: And the “glycan array binding signal (z-score)” value (Gal(a1-3)GalNAc)?
Answer: 0.238

Question: And the “glycan array binding signal (z-score)” value [20]?
Answer: 0.937

Question: And the “glycan array binding signal (z-score)” value [21]?
Answer: -0.388

Question: What about the “glycan array binding signal (z-score)” value (Gal(a1-4)Gal(b1-4)Glc) of the same binder?
Answer: 0.026

Question: What about the “glycan array binding signal (z-score)” value (Gal(a1-4)Gal(b1-4)GlcNAc) of the same binder?
Answer: -1.08

Question: And the “glycan array binding signal (z-score)” value [22]?
Answer: -0.437

Question: And the “glycan array binding signal (z-score)” value [23]?
Answer: -1.03

Question: What about the “glycan array binding signal (z-score)” value (Gal(a1-4)GlcNAc) of the same binder?
Answer: 1.45

Question: And the “glycan array binding signal (z-score)” value (Gal(a1-6)Glc)?
Answer: 0.098

Question: What about the “glycan array binding signal (z-score)” value (Gal(b1-2)Gal) of the same binder?
Answer: 1.21

Question: And the “glycan array binding signal (z-score)” value (Gal(b1-3)Gal)?
Answer: -0.342

Question: And the “glycan array binding signal (z-score)” value (Gal(b1-3)Gal(b1-4)GlcNAc)?
Answer: -0.126

Question: What about the “glycan array binding signal (z-score)” value [24] of the same binder?
Answer: 0.161

Question: And the “glycan array binding signal (z-score)” value (Gal(b1-3)GalNAc)?
Answer: -0.726

Question: And the “glycan array binding signal (z-score)” value [25]?
Answer: -0.197

Question: What about the “glycan array binding signal (z-score)” value [26] of the same binder?
Answer: -0.374

Question: What about the “glycan array binding signal (z-score)” value [27] of the same binder?
Answer: -1.11

Question: And the “glycan array binding signal (z-score)” value [28]?
Answer: 0.382

Question: And the “glycan array binding signal (z-score)” value [29]?
Answer: -0.423
